Reference: patent US9126983B2, “Extracts from kibdelos porangium as antibacterial agents” (Merck Sharp & Dohme Corp., priority 2009, dated 2015)
In brackets after ≈: the same amount, converted by molar mass.

Tests used:
[1] = tested on: Staphylococcus aureus (MB2865); experiment: Microbroth dilution MIC, Staphylococcus aureus MB2865; assay type: cell-based; details: cation-adjusted Mueller Hinton broth, no visible growth, read-out: MIC-100
From the text: (§1) The Staphylococcus aureus strains used were obtained from the Merck Culture Collection, and are identified as MB2865 and MB5957. […] Selected isolates were subcultured onto either […] Isolates were subcultured twice before assay. […] Plates were read to no growth.

[2] = tested on: Staphylococcus aureus (MB5957); experiment: Microbroth dilution MIC, Staphylococcus aureus MB5957; assay type: cell-based; details: cation-adjusted Mueller Hinton broth, no visible growth, read-out: MIC-100
From the text: as §1

[3] = tested on: Escherichia coli envA1 tolC (MB5746); experiment: microbe, parasite or virus in culture; details: read-out: MIC-100

## O=C(O)c1cn(C2CC2)c2cc(N3CCNCC3)c(F)cc2c1=O [Ciprofloxacin]
[1]
  MIC: 0.12 µg/mL (≈ 0.362 µM)
[2]
  MIC: 1 µg/mL (≈ 3.02 µM)
[3]
  MIC: < 0.015 µg/mL
